# The supplement of paper PMC10663445
# Structures can show the parent of a compound that is named as a salt. Some of the results follow. Repeats are few or missing, and single values can be far off.
# Test system: hsa-miR-132-3p
# Assay: miR-132-3p level in NGN2-iNs after compound treatment (TMM-normalised, ComBat batch-corrected) (batch-corrected normalised expression (arbitrary units)); higher = higher miR-132-3p expression
# Settings: 10 µM; 24 h; human iPSC-derived NGN2 neurons (BR43)
row,SMILES,miR-132-3p level in NGN2-iNs
1,CC(=O)O[C@]1(C(C)=O)CC[C@H]2[C@@H]3C[C@H](C)C4=CC(=O)C=C[C@]4(C)[C@@]3(F)[C@@H](O)C[C@@]21C [Fluorometholone Acetate],0.786
2,Cc1ccc(-c2csc(NC(=O)c3ccccc3)n2)c(C)c1,0.356
3,Cc1cc(C(C)(C)C)c(O)c(C)c1CC1=NCCN1 [Oxymetazoline HCl],1.12
4,O=c1cc(N2CCOCC2)oc2c(-c3cccc4c3sc3ccccc34)cccc12,-0.654
5,CC(C)(C(=O)O)c1ccc(C(O)CCCN2CCC(C(O)(c3ccccc3)c3ccccc3)CC2)cc1 (stereo unspecified) [Fexofenadine HCl],0.224
6,COc1ccc([C@@H]2CC(=O)c3c(O)cc(O[C@@H]4O[C@H](CO[C@@H]5O[C@@H](C)[C@H](O)[C@@H](O)[C@H]5O)[C@@H](O)[C@H](O)[C@H]4O)cc3O2)cc1O [Hesperidin],0.934
7,COC(c1ccccc1)(c1ccccc1)[C@H](Oc1nc(C)cc(C)n1)C(=O)O [Ambrisentan],1.2
8,COC(=O)C1=C(C)NC(C)=C(C(=O)OCCN2CCN(C(c3ccccc3)c3ccccc3)CC2)C1c1cccc([N+](=O)[O-])c1 (stereo unspecified) [Manidipine 2HCl],0.674
9,CC(C)N(C[C@H]1O[C@@H](n2cnc3c(N)ncnc32)[C@H](O)[C@@H]1O)[C@H]1C[C@@H](CCc2nc3cc(C(C)(C)C)ccc3[nH]2)C1 [Pinometostat (EPZ5676)],0.0812
10,C[N+]1(C)[C@@H]2CC[C@H]1C[C@@H](OC(=O)C(O)c1ccccc1)C2 (stereo partly specified) [Homatropine Methylbromide],-0.362
11,C[N+]1(C)[C@@H]2C[C@@H](OC(=O)C(O)(c3cccs3)c3cccs3)C[C@H]1[C@@H]1O[C@@H]12 [Tiotropium Bromide hydrate],-0.779
12,CC(C(=O)O)c1ccc2c(c1)Cc1cccnc1O2 (stereo unspecified) [Pranoprofen],-0.49
13,CC(=O)Nc1ccccc1 [Acetanilide],0.444
14,Cc1cc(C(N)=O)ccc1-n1c(CCC(=O)O)ccc1-c1ccc(-n2ccnc2)cc1,-0.935
15,C[C@]12CCC(=O)C=C1CC[C@@H]1[C@@H]2[C@@H](O)C[C@@]2(C)[C@H]1CC[C@]2(O)C(=O)CO [Hydrocortisone],-4.71
16,CN(N=O)C(=O)NC1C(O)OC(CO)C(O)C1O (stereo unspecified) [Streptozotocin (STZ)],-2.85
17,Oc1ncnc2[nH]ncc12 [Allopurinol],0.719
18,O=C(CCc1ccc(O)cc1)c1c(O)cc(O)cc1O[C@@H]1O[C@H](CO)[C@@H](O)[C@H](O)[C@H]1O [Phlorizin],-0.311
19,Cn1cnc(-c2cc3nccc(Oc4ccc(NC(=S)NC(=O)Cc5ccccc5)cc4F)c3s2)c1 [MGCD-265 analog],0.69
20,CO/N=C(\C(=O)N[C@@H]1C(=O)N2C(C(=O)OCOC(=O)C(C)(C)C)=C(/C=C\c3scnc3C)CS[C@H]12)c1csc(N)n1 [Cefditoren Pivoxil],-1.03
21,O=C(Nc1ccccc1)c1cc([N+](=O)[O-])ccc1Cl,1.01
22,C=C1C(=O)O[C@@H]2/C=C(\C)CC/C=C(\C)CC[C@@H]12 [Costunolide],0.19
23,CCCc1cc(=O)[nH]c(=S)[nH]1 [Propylthiouracil],-1.22
24,Cc1ccc(Nc2c(F)cccc2Cl)c(CC(=O)O)c1 [Lumiracoxib],-0.267
25,O=c1cc(-c2cccc3c2Sc2ccccc2S3)oc(N2CCOCC2)c1,-0.0751
26,Oc1ccc([C@H]2COc3cc(O)ccc3C2)cc1 [Equol],0.984

# Fetched one by one from the entries so far:
row,SMILES,miR-132-3p level in NGN2-iNs
4,O=c1cc(N2CCOCC2)oc2c(-c3cccc4c3sc3ccccc34)cccc12,-0.654
5,CC(C)(C(=O)O)c1ccc(C(O)CCCN2CCC(C(O)(c3ccccc3)c3ccccc3)CC2)cc1 (stereo unspecified) [Fexofenadine HCl],0.224

# (cont.)

row,SMILES,miR-132-3p level in NGN2-iNs
1,N=C(N)c1ccc(OCCCCCOc2ccc(C(=N)N)cc2)cc1 [Pentamidine isethionate],0.289
2,N#Cc1c(O)c2c(-c3ccc(-c4ccccc4O)cc3)csc2[nH]c1=O,0.47
3,CC1(C)S[C@@H]2[C@H](NC(=O)[C@H](N)c3ccc(O)cc3)C(=O)N2[C@H]1C(=O)O [Amoxicillin],-0.638
4,CC1(C)S[C@@H]2[C@H](NC(=O)[C@H](N)c3ccc(O)cc3)C(=O)N2[C@H]1C(=O)O [Amoxicillin Sodium],2.14
5,Cc1cc(C(=O)NOCCO)c(Nc2ccc(I)cc2F)n(C)c1=O,-1
6,Nc1nc(Cl)nc2c1ncn2[C@H]1C[C@H](O)[C@@H](CO)O1 [Cladribine],0.711
7,O=C(C=Cc1ccccc1)NC(NC(=S)Nc1ccc(Cl)cc1)C(Cl)(Cl)Cl (stereo unspecified),-0.265
8,O=C(O)C(O)Cc1ccc(O)c(O)c1 (stereo unspecified) [Sodium Danshensu],-0.494
9,Oc1ccc(OC2CCCCO2)cc1 (stereo unspecified) [Deoxyarbutin],1.5
10,Nc1cccc2c1C(=O)N(C1CCC(=O)NC1=O)C2=O (stereo unspecified) [Pomalidomide],-0.318
11,O=C(/C=C/c1ccccc1)NC(NC(=S)Nc1cccc2cccnc12)C(Cl)(Cl)Cl (stereo unspecified) [Salubrinal],-1.06
12,CC(=O)O[C@@]12CO[C@@H]1C[C@H](O)[C@@]1(C)C(=O)[C@H](O)C3=C(C)[C@@H](OC(=O)[C@H](O)[C@@H](NC(=O)OC(C)(C)C)c4ccccc4)C[C@@](O)([C@@H](OC(=O)c4ccccc4)[C@H]21)C3(C)C [Docetaxel],2.13
13,Nc1ccn([C@@H]2O[C@H](CO)[C@@H](O)C2(F)F)c(=O)n1 [Gemcitabine],-0.54
14,COc1ccccc1N1CCN(CCN(C(=O)C2CCCCC2)c2ccccn2)CC1,-1.14
15,CN(C)CCN(Cc1ccccc1)c1ccccn1 [Tripelennamine HCl],-0.933
16,CC1CNc2c(cccc2S(=O)(=O)N[C@@H](CCCNC(=N)N)C(=O)N2CC[C@@H](C)C[C@@H]2C(=O)O)C1 (stereo partly specified) [Argatroban],-0.763
17,CO[C@H]1C[C@@H]2CC[C@@H](C)[C@@](O)(O2)C(=O)C(=O)N2CCCC[C@H]2C(=O)O[C@H]([C@H](C)C[C@@H]2CC[C@@H](OCCO)[C@H](OC)C2)CC(=O)[C@H](C)/C=C(\C)[C@@H](O)[C@@H](OC)C(=O)[C@H](C)C[C@H](C)/C=C/C=C/C=C/1C [Everolimus (RAD001)],-0.398
18,Cc1cc(C)c(Nc2ccnc(Nc3ccc(C#N)cc3)n2)c(C)c1 [Dapivirine (TMC120)],-0.472
19,Cc1cc(/C=C2/SC(=S)NC2=O)c(C)n1-c1cccnc1 [Optovin],-0.789
20,Nc1ncnc2c1ncn2[C@@H]1O[C@H](CO)[C@@H](O)[C@H]1O [Adenosine],-0.325
21,CCCN(CCC)S(=O)(=O)c1ccc(C(=O)O)cc1 [Probenecid],-1.18
22,CCNC(=O)Nc1ccc(-c2nc3c(c(N4CCOC[C@@H]4C)n2)CCN(C2COC2)C3)cc1,0.252
23,CC(NC(=O)Cc1cc(F)cc(F)c1)C(=O)NC(C(=O)OC(C)(C)C)c1ccccc1 (stereo unspecified),-1.14
24,C[C@]12CC[C@@H]3c4ccc(O)cc4CC[C@H]3[C@@H]1CC[C@@H]2O [Estradiol],1.88
25,CC(C)c1ccc(NC(=O)Cn2cnc3c2c(=O)n(C)c(=O)n3C)cc1,2.47
26,CCNC(=O)c1[nH]nc(-c2cc(Cl)c(O)cc2O)c1-c1ccc(OC)cc1,-0.895

row,SMILES,miR-132-3p level in NGN2-iNs
1,CCOC(=O)CCNc1cc(N2CCc3ccccc3CC2)nc(-c2ccccn2)n1,-0.969
2,Cc1cc(=O)oc2c(C=O)c(O)ccc12,-0.466
3,CN(C)CCOC(c1ccccc1)c1ccccc1 [Diphenhydramine HCl],1.21
4,CC(=O)[C@H]1CC[C@H]2[C@@H]3CCC4=CC(=O)CC[C@]4(C)[C@H]3CC[C@]12C [Progesterone],0.213
5,COc1ccc2ccc(=O)oc2c1CC=C(C)C [Osthole],-0.347
6,O=C(Nc1nc2cccc(-c3ccc(CN4CCS(=O)(=O)CC4)cc3)n2n1)C1CC1 [Filgotinib (GLPG0634)],0.385
7,N=C(N)NS(=O)(=O)c1ccc(N)cc1 [Sulfaguanidine],-0.612
8,CC(=O)Oc1ccccc1C(=O)O [Aspirin],-1.39
9,CNS(=O)(=O)CCc1ccc2[nH]cc(C3CCN(C)CC3)c2c1 [Naratriptan HCl],0.667
10,C#Cc1cccc(Nc2ncnc3cc4c(cc23)OCCOCCOCCO4)c1 [Icotinib],-0.424
11,Cc1ncc(CO)c(CO)c1O [Pyridoxine HCl],-0.75
12,C[C@H](O)[C@H](O)[C@@H](O)[C@@H](O)C=O [L-(+)-Rhamnose Monohydrate],-1.78
13,CC1(C)[C@H](C(=O)O)N2C(=O)C[C@H]2S1(=O)=O [Sulbactam],-0.901
14,CC1(C)[C@H](C(=O)O)N2C(=O)C[C@H]2S1(=O)=O [Sulbactam sodium],-0.0324
15,CC(C)c1cc(-c2n[nH]c(=O)n2-c2ccc3c(ccn3C)c2)c(O)cc1O [Ganetespib (STA-9090)],-0.197
16,CC(=O)O[C@]1(C(C)=O)CC[C@H]2[C@@H]3C=C(Cl)C4=CC(=O)[C@@H]5C[C@@H]5[C@]4(C)[C@H]3CC[C@@]21C [Cyproterone Acetate],-0.786
17,Cc1cc(C)c(-c2csc(NC(=O)c3ccccc3)n2)c(C)c1,-1.01
18,Cn1cc(-c2cnn3c(N)c(Br)c([C@@H]4CCCNC4)nc23)cn1,0.619
19,C=CC(=O)Nc1cccc(Nc2nc(Nc3ccc(Oc4ccnc(C(=O)NC)c4)cc3)ncc2F)c1,-0.565
20,Cc1[nH]c2ccccc2c1C1=C(NCCc2ccc(F)cc2)C(=O)N(C)C1=O,0.87
21,N=C(N)Nc1ccc(C(=O)Oc2ccc3cc(C(=N)N)ccc3c2)cc1 [Nafamostat Mesylate],-1.29
22,N[C@@H](Cc1c[nH]c2ccc(O)cc12)C(=O)O [5-hydroxytryptophan (5-HTP)],-0.765
23,"CC(C)n1nc(-c2ccc3oc(N)nc3c2)c2c(N)ncnc21 [Sapanisertib (INK 128, MLN0128)]",0.00523
24,CC(=O)O[C@]1(C(C)=O)CC[C@H]2[C@@H]3CCC4=CC(=O)CCC4=C3[C@@H](c3ccc(N(C)C)cc3)C[C@@]21C [Ulipristal Acetate (CDB 2914)],2.03

# Shown with tabs: entries from further up
row	SMILES	miR-132-3p level in NGN2-iNs
4	O=c1cc(N2CCOCC2)oc2c(-c3cccc4c3sc3ccccc34)cccc12	-0.654
10	C[N+]1(C)[C@@H]2CC[C@H]1C[C@@H](OC(=O)C(O)c1ccccc1)C2 (stereo partly specified) [Homatropine Methylbromide]	-0.362
13	CC(=O)Nc1ccccc1 [Acetanilide]	0.444
17	Oc1ncnc2[nH]ncc12 [Allopurinol]	0.719
25	O=c1cc(-c2cccc3c2Sc2ccccc2S3)oc(N2CCOCC2)c1	-0.0751
2	N#Cc1c(O)c2c(-c3ccc(-c4ccccc4O)cc3)csc2[nH]c1=O	0.47
4	CC1(C)S[C@@H]2[C@H](NC(=O)[C@H](N)c3ccc(O)cc3)C(=O)N2[C@H]1C(=O)O [Amoxicillin Sodium]	2.14
5	Cc1cc(C(=O)NOCCO)c(Nc2ccc(I)cc2F)n(C)c1=O	-1
7	O=C(C=Cc1ccccc1)NC(NC(=S)Nc1ccc(Cl)cc1)C(Cl)(Cl)Cl (stereo unspecified)	-0.265
13	Nc1ccn([C@@H]2O[C@H](CO)[C@@H](O)C2(F)F)c(=O)n1 [Gemcitabine]	-0.54
15	CN(C)CCN(Cc1ccccc1)c1ccccn1 [Tripelennamine HCl]	-0.933
19	Cc1cc(/C=C2/SC(=S)NC2=O)c(C)n1-c1cccnc1 [Optovin]	-0.789
10	C#Cc1cccc(Nc2ncnc3cc4c(cc23)OCCOCCOCCO4)c1 [Icotinib]	-0.424
12	C[C@H](O)[C@H](O)[C@@H](O)[C@@H](O)C=O [L-(+)-Rhamnose Monohydrate]	-1.78
14	CC1(C)[C@H](C(=O)O)N2C(=O)C[C@H]2S1(=O)=O [Sulbactam sodium]	-0.0324
15	CC(C)c1cc(-c2n[nH]c(=O)n2-c2ccc3c(ccn3C)c2)c(O)cc1O [Ganetespib (STA-9090)]	-0.197
17	Cc1cc(C)c(-c2csc(NC(=O)c3ccccc3)n2)c(C)c1	-1.01
18	Cn1cc(-c2cnn3c(N)c(Br)c([C@@H]4CCCNC4)nc23)cn1	0.619
21	N=C(N)Nc1ccc(C(=O)Oc2ccc3cc(C(=N)N)ccc3c2)cc1 [Nafamostat Mesylate]	-1.29
